Source: ChEMBL document CHEMBL3988442, “University of Dundee, Small-Polar-MMV Screening Library” (2021).

Values are the deposited “Percent Effect”, in %. The record does not define 0% and 100%; most values in the screen are far below 50% and negative numbers occur (in some assays of this library far below -100). The compounds are a random part of those screened. Two or more numbers in one place are separate tests of the same structure; such repeats can differ widely.

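Viability assay of Plasmodium falciparum sporozoites; the read-out is not stated. The concentration is filed as 10 mM, unlikely as a test dose, so the dose is not known. Direction is inferred from retests: higher values go with lower viability. Strong results were mostly tested again. About 34,000 compounds were tested under these conditions; 0.84% (about 280) showed 50% or more at least once.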

{"smiles": "CCCN1CCCn2nc(CNS(=O)(=O)c3ccc(C)cc3)cc2C1", "percent effect": 6.757}
{"smiles": "Cc1ccc(CC(=O)N2CCN(CC(O)c3ccccc3)CC2)cn1", "stereo": "centres unmarked", "percent effect": 5.606}
{"smiles": "Cc1ccc(CNC2(Cc3cc(CC(C)C)on3)COC2)o1", "percent effect": "-4.697 & 0.928"}
{"smiles": "Cc1ccccc1-c1cncc(C2CCN(C)CC2)n1", "percent effect": -21.68}
{"smiles": "CCN1CCN(C2CCN(Cc3cc(C)on3)CC2)C1=O", "percent effect": 1.727}
{"smiles": "CN1C(=O)C(C)(C)COc2cc(NS(=O)(=O)c3ccccc3)ccc21", "percent effect": 0.1181}
{"smiles": "CCn1ccnc1CN1CCN(CC(=O)NC(C2CC2)C2CC2)CC1", "percent effect": "9.86 & -7.31 & 1.993"}
{"smiles": "[H][C@]12CCCC(N(C)Cc3ccccn3)[C@@]1([H])CN(c1ncc(CC)cn1)C2", "stereo": "some centres unmarked", "percent effect": 9.966}
{"smiles": "CNC(=O)c1cnc(/C=C/c2cc(OC)c(OC)c(OC)c2)s1", "percent effect": 5.862}
{"smiles": "CN(C)c1nccc(-c2cnc(N(C)C)[nH]c2=O)n1", "percent effect": -19.56}
{"smiles": "Cc1nc(C)n(CC2CCCCN2CC(=O)NC(C2CC2)C2CC2)n1", "stereo": "centres unmarked", "percent effect": -7.243}
{"smiles": "O=C(Cn1nc(-c2cccs2)ccc1=O)N1CCCCCC1", "percent effect": -10.75}
{"smiles": "Cc1cccc(Cn2c3c(ccc2=O)CCN(Cc2ccoc2)CC3)n1.O=C(O)C(F)(F)F.O=C(O)C(F)(F)F", "percent effect": -1.964}
{"smiles": "CC(=O)N1CCN(C(C)C)CC(COc2ccccc2)C1", "stereo": "centres unmarked", "percent effect": 4.776}
{"smiles": "[H][C@@]12CCN(Cc3cccs3)[C@]1([H])CC[C@H](COCC1CC1)O2", "percent effect": 0.08681}
{"smiles": "CC(=O)N1CCC(c2cccc(-c3cccc(C(=O)O)c3)n2)CC1", "percent effect": -11.61}
{"smiles": "CC1(c2nccs2)CCN(C(=O)CC2CCOCC2)CC1", "percent effect": 2.977}
{"smiles": "O=C(c1cc(COc2ccc3c(c2)OCO3)[nH]n1)N1CCCC1", "percent effect": -25.72}
{"smiles": "[H][C@]12CN(C(=O)C3CC3)CCN1C[C@H](c1ccccc1)[C@H]2CO", "percent effect": -27.79}
{"smiles": "O=C(NCC1CC2(CO1)CN(Cc1cccs1)C2)C1CCC1.O=C(O)C(F)(F)F", "stereo": "centres unmarked", "percent effect": -8.406}
{"smiles": "O=C(NCCn1ccnc1)c1ccn(-c2ccccc2)n1", "percent effect": 4.039}
{"smiles": "CSCC[C@H](NC(C)=O)c1nc(CC(C)C)n[nH]1", "percent effect": -9.649}
{"smiles": "OC1(Cn2ccc3ncccc32)CCN(Cc2cccnc2)CC1", "percent effect": -0.3271}
{"smiles": "Cc1cnn(CC(C)NCc2ccncc2)c1", "stereo": "centres unmarked", "percent effect": "42.66 & -12.96 & -11.38"}
{"smiles": "COc1nn(C)cc1C(=O)N1CCC(c2nnc(C3CC3)o2)CC1", "percent effect": 0.7821}
{"smiles": "CCOC(=O)[C@@H]1[C@@H](OC)C(=O)N(C)C12CCN(C(=O)C(CC)CC)CC2", "percent effect": 0.09569}
{"smiles": "COc1c(CNC2CCN(c3ccccn3)CC2)c(C(C)C)nn1C", "percent effect": 6.319}
{"smiles": "COc1ccccc1COCC(O)CN1CC(n2cccn2)C1", "stereo": "centres unmarked", "percent effect": 4.8}
{"smiles": "CN(C)c1ccc(CC2CCN(c3cnccn3)C2)nn1", "stereo": "centres unmarked", "percent effect": 3.133}
{"smiles": "O=C(O)C(F)(F)F.O=C(O)C(F)(F)F.[H][C@]12CCN(Cc3ccc(C)cc3)[C@@]1([H])C[C@H](C(=O)N1CCN(C)CC1)O2", "percent effect": 8.305}
{"smiles": "CN(C)C(=O)CNC(=O)c1cc(Br)c2c(c1)OCCO2", "percent effect": 10.52}
{"smiles": "O=C(Nc1nc2c(s1)CN(S(=O)(=O)C1CC1)CC2)Nc1ccccc1F", "percent effect": "-49.32 & -47.45"}
{"smiles": "O=C(O)C(F)(F)F.[H][C@@]12OCCN(CC3CCOCC3)[C@@]1([H])CC[C@H]2OCC(=O)N1CCCC1", "percent effect": -14.88}
{"smiles": "Cc1ccc(NC2CCN(C(=O)CC3CCCO3)CC2)nn1", "stereo": "centres unmarked", "percent effect": -4.8}
{"smiles": "CCc1ncncc1C(=O)N1CCCC(n2nc(C)nc2C)C1", "stereo": "centres unmarked", "percent effect": 0.4571}
{"smiles": "O=C(Cc1cccnc1)NC1COc2ccccc2C1=O", "stereo": "centres unmarked", "percent effect": -2.775}
{"smiles": "CCc1ncc2c(n1)CN(Cc1nc(-c3cccs3)no1)CC2", "percent effect": "28.83 & 38 & 27.96"}
{"smiles": "CN(C)CCCNCCC(Cc1ccccc1)C1CCOC(C)(C)C1.O=C(O)C(=O)O", "stereo": "centres unmarked", "percent effect": "-0.1506 & 2.202"}
{"smiles": "O=C(NCc1ccc(-n2cncn2)nc1)c1cc(Cl)c2c(c1)OCCO2", "percent effect": 0.9659}
{"smiles": "CCc1noc(CN2CCN(C(=O)N(CC)CC)CC2)n1", "percent effect": -2.728}
{"smiles": "CCCn1cc(CN2CCCC2c2nccc(CN(C)C)n2)cn1", "stereo": "centres unmarked", "percent effect": 7.524}
{"smiles": "O=C(CCc1ccccc1)NCC1CCN(Cc2ccsc2)CC1", "percent effect": 5.922}
{"smiles": "Cc1nc(C)c(C(=O)N(C)Cc2cnn(C)c2)s1", "percent effect": -8.914}
{"smiles": "CCN(CC)C(=O)CN1CCC(c2nc(C)c3c(n2)N(C)CCC3)CC1", "percent effect": 2.685}
{"smiles": "CCC(Nc1cccc(Oc2ccc(C#N)cc2)c1)C(N)=O", "stereo": "centres unmarked", "percent effect": 15.24}
{"smiles": "[H][C@@]12CCN(C(=O)N(C)C)C[C@@]1([H])O[C@@H](c1nc(C)no1)C2", "percent effect": -8}
{"smiles": "CCc1n[nH]c(C2CN(CCc3ccncc3)CCO2)n1", "stereo": "centres unmarked", "percent effect": -17.18}
{"smiles": "OC(CN1CCCCCCC1)c1ccc(F)cc1", "stereo": "centres unmarked", "percent effect": 7.749}
{"smiles": "CCC1CN(CCC(=O)N(C)C)CCN1CCOC", "stereo": "centres unmarked", "percent effect": 12.48}
{"smiles": "CN(Cc1ccco1)C(=O)CN1CCCC1Cn1cccn1", "stereo": "centres unmarked", "percent effect": 4.682}
{"smiles": "CCc1nc(NCCCn2cccn2)c2c(n1)c(C)nn2CC", "percent effect": "-4.288 & -6.667"}
{"smiles": "CNCc1n[nH]c(=O)n1-c1cccc(Cl)c1Cl", "percent effect": -19.23}
{"smiles": "O=C(Nc1cccc(C2SCCS2)c1)C1CCCN1c1nccs1", "stereo": "centres unmarked", "percent effect": 21.59}
{"smiles": "O=C(C1CC1)N1CCC2(COCc3cnc(NCc4ccco4)nc32)C1", "stereo": "centres unmarked", "percent effect": 7.456}
{"smiles": "CC(O)CN1CCN(C(=O)c2cccc3[nH]ncc23)CC1", "stereo": "centres unmarked", "percent effect": -10.33}
{"smiles": "Cc1cc(O)cc(C2CCCN2C(=O)c2ccn(C)n2)n1", "stereo": "centres unmarked", "percent effect": 6.264}
{"smiles": "Cc1cccc2sc(NC(=O)CN3CCCC4(CC3)CNC(=O)O4)nc12", "stereo": "centres unmarked", "percent effect": "74.6 & 74.31"}

For reference, 4 entries once more:

{"smiles": "CNC(=O)c1cnc(/C=C/c2cc(OC)c(OC)c(OC)c2)s1", "percent effect": 5.862}
{"smiles": "Cc1nc(C)n(CC2CCCCN2CC(=O)NC(C2CC2)C2CC2)n1", "stereo": "centres unmarked", "percent effect": -7.243}
{"smiles": "CSCC[C@H](NC(C)=O)c1nc(CC(C)C)n[nH]1", "percent effect": -9.649}
{"smiles": "O=C(NCc1ccc(-n2cncn2)nc1)c1cc(Cl)c2c(c1)OCCO2", "percent effect": 0.9659}